Experiments:
[1] = tested on: Small intestine excised from guinea-pigs; assay: Inhibition of BaCl2-induced contraction of isolated smooth muscle (small intestine excised from guinea-pigs); conditions: contracting substance BaCl2 2.00×10^-3 g/ml; effective concentration 1×10^-5 g/ml
[2] = tested on: Small intestine excised from guinea-pigs; assay: Inhibition of histamine-induced contraction of isolated smooth muscle (small intestine excised from guinea-pigs); conditions: contracting substance Histamine 1.00×10^-7 g/ml; effective concentration 1×10^-5 g/ml
[3] = tested on: Vessels excised from guinea-pigs; assay: Inhibition of adrenalin-induced contraction of isolated smooth muscle (vessels excised from guinea-pigs); conditions: contracting substance Adrenalin 2.86×10^-6 g/ml; effective concentration 1×10^-5 g/ml
[4] = tested on: Small intestine excised from guinea-pigs; assay: Inhibition of acetylcholine-induced contraction of isolated smooth muscle (small intestine excised from guinea-pigs); conditions: contracting substance Acethylcholine 5.43×10^-4 g/ml; effective concentration 2.30×10^-6 g/ml

Question: For C(=C\c1ccccc1)/CN1CCN(C(c2ccccc2)c2ccccc2)CC1 [Cinnarizine, reference compound], which Inhibitory rate [1] is on record?
Answer: The Inhibitory rate was 25.2%.

Question: What about the Inhibitory rate [2] of the same compound?
Answer: Its Inhibitory rate is 91.9%.

Question: What about the Inhibitory rate [3] of the same compound?
Answer: The Inhibitory rate was 32.50%.

Question: What about the Inhibitory rate [4] of the same compound?
Answer: The Inhibitory rate was 28.15%.

Reference: patent publication US4001223A, “Adamantane-piperazine derivatives” (Idemitsu Kosan Co., Ltd., priority 1975, dated 1977)
